{"source": "PubChem BioAssay AID1224830 (NIAID, 2016)", "assay": "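Genes whose knock-down alters the TNF-alpha reporter response to LPS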 (primary screen)", "cells": "human THP-1 monocytic leukaemia cells, TNF dual-luciferase reporter clone, PMA-differentiated to macrophage-like cells", "knock-down reagent": "siRNA pool against human genes, 50 nM", "time to read-out": "LPS for 4 h, given about 3 days after siRNA transfection", "conditions": "bacterial LPS (TLR4 ligand), 10 ng/ml", "measurement": "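Ratio of firefly to renilla light, scaled to the plate median and expressed as a robust z-score per replicate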", "reading the numbers": "TNF reporter robust z-score: higher = stronger TNF reporter response to LPS", "hit rule": "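Each well counts as active if its z-score is over 2.8 or under -1.5; controls are left without a call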", "note": "The deposit covers about 18,000 reagents; shown is a random part of them. About 2,900 of all reagents (16%) count as active. 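Calls are made per well; low scores hint the gene aids the LPS response, high scores that it dampens it.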 Repeated entries: four replicate wells of each siRNA pool."}
{"gene":"CLEC16A","TNF reporter robust z-score":-0.03,"Call":"inactive"}
{"gene":"CLEC16A","TNF reporter robust z-score":0.31,"Call":"inactive"}
{"gene":"CLEC16A","TNF reporter robust z-score":0.85,"Call":"inactive"}
{"gene":"CLEC16A","TNF reporter robust z-score":1.05,"Call":"inactive"}
{"gene":"NLRP2","TNF reporter robust z-score":-0.24,"Call":"inactive"}
{"gene":"NLRP2","TNF reporter robust z-score":1.14,"Call":"inactive"}
{"gene":"NLRP2","TNF reporter robust z-score":-0.92,"Call":"inactive"}
{"gene":"NLRP2","TNF reporter robust z-score":0.21,"Call":"inactive"}
{"gene":"HOOK1","TNF reporter robust z-score":1.01,"Call":"inactive"}
{"gene":"HOOK1","TNF reporter robust z-score":1.23,"Call":"inactive"}
{"gene":"HOOK1","TNF reporter robust z-score":1.93,"Call":"inactive"}
{"gene":"HOOK1","TNF reporter robust z-score":1.6,"Call":"inactive"}
{"gene":"COL11A1","TNF reporter robust z-score":0.85,"Call":"inactive"}
{"gene":"COL11A1","TNF reporter robust z-score":1.07,"Call":"inactive"}
{"gene":"COL11A1","TNF reporter robust z-score":1.19,"Call":"inactive"}
{"gene":"COL11A1","TNF reporter robust z-score":1.43,"Call":"inactive"}
{"gene":"PPFIBP1","TNF reporter robust z-score":-1.49,"Call":"inactive"}
{"gene":"PPFIBP1","TNF reporter robust z-score":-0.65,"Call":"inactive"}
{"gene":"PPFIBP1","TNF reporter robust z-score":-0.33,"Call":"inactive"}
{"gene":"PPFIBP1","TNF reporter robust z-score":-0.47,"Call":"inactive"}
{"gene":"RPL21","TNF reporter robust z-score":-0.23,"Call":"inactive"}
{"gene":"RPL21","TNF reporter robust z-score":-0.26,"Call":"inactive"}
{"gene":"RPL21","TNF reporter robust z-score":-0.34,"Call":"inactive"}
{"gene":"RPL21","TNF reporter robust z-score":0.1,"Call":"inactive"}
{"gene":"CARMIL2","TNF reporter robust z-score":-0.24,"Call":"inactive"}
{"gene":"CARMIL2","TNF reporter robust z-score":-0.33,"Call":"inactive"}
{"gene":"CARMIL2","TNF reporter robust z-score":0.22,"Call":"inactive"}
{"gene":"CARMIL2","TNF reporter robust z-score":1.82,"Call":"inactive"}
{"gene":"ZNF700","TNF reporter robust z-score":1.04,"Call":"inactive"}
{"gene":"ZNF700","TNF reporter robust z-score":-0.1,"Call":"inactive"}
{"gene":"ZNF700","TNF reporter robust z-score":-1.07,"Call":"inactive"}
{"gene":"ZNF700","TNF reporter robust z-score":0.67,"Call":"inactive"}
{"gene":"PAFAH2","TNF reporter robust z-score":-0.89,"Call":"inactive"}
{"gene":"PAFAH2","TNF reporter robust z-score":-0.99,"Call":"inactive"}
{"gene":"PAFAH2","TNF reporter robust z-score":-1.08,"Call":"inactive"}
{"gene":"PAFAH2","TNF reporter robust z-score":-0.39,"Call":"inactive"}
{"gene":"MAP1LC3B","TNF reporter robust z-score":-0.19,"Call":"inactive"}
{"gene":"MAP1LC3B","TNF reporter robust z-score":0.06,"Call":"inactive"}
{"gene":"MAP1LC3B","TNF reporter robust z-score":-1.43,"Call":"inactive"}
{"gene":"MAP1LC3B","TNF reporter robust z-score":0.02,"Call":"inactive"}
{"gene":"NLGN4X","TNF reporter robust z-score":2.79,"Call":"inactive"}
{"gene":"NLGN4X","TNF reporter robust z-score":2.85,"Call":"active"}
{"gene":"NLGN4X","TNF reporter robust z-score":3.49,"Call":"active"}
{"gene":"NLGN4X","TNF reporter robust z-score":2.76,"Call":"inactive"}
{"gene":"MMP10","TNF reporter robust z-score":0.46,"Call":"inactive"}
{"gene":"MMP10","TNF reporter robust z-score":0.56,"Call":"inactive"}
{"gene":"MMP10","TNF reporter robust z-score":-0.99,"Call":"inactive"}
{"gene":"MMP10","TNF reporter robust z-score":-0.32,"Call":"inactive"}
